Results deposited as PubChem BioAssay AID1508597 (Cure First, 2020).
This is a random part of about 2,100 reagents tested. 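Calls flag viability under 80% in either arm, not effects specific to rucaparib; the reference for percent is not stated.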 Unmarked entries are inactive. A reagent listed more than once was tested more than once; the source does not tell the runs apart. The record does not give: the 100% reference.

Assay: 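Survival screen with siRNA in ovarian cancer cells derived from patients, with or without rucaparib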 (primary screen)
System: human ovarian carcinoma lines grown from tumours: OCI-P5x (papillary serous) and OCI-C5x (clear cell)
Reagent: siRNA pool against human genes, 1.25 pmol siRNA per well
Timing: 72 h or 96 h, depending on the cell culture
Conditions: rucaparib 20 µM (about IC30) or vehicle, present until read-out
Read-out: 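ATP luminescence measured at 72 or 96 h according to the culture, then normalised and expressed as percent viability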
Reading the numbers: viability, normalised: higher = more viable cells remaining
Call rule: 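a well counts as a hit if its normalised viability is under 80 percent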
Meaning of the calls: active = viability under 80%; inactive = viability 80% or more

The first 4 entries as a preview:
| gene knocked down | rucaparib or vehicle | cell line | technical replicate | viability, normalised (%) |
| --- | --- | --- | --- | --- |
| NBL1 | Rucaparib | OCI-C5x (clear cell) | 1 | 61.6 (active) |
| NBL1 | Rucaparib | OCI-C5x (clear cell) | 2 | 50.1 (active) |
| NBL1 | Rucaparib | OCI-C5x (clear cell) | 3 | 65.4 (active) |
| NBL1 | Rucaparib | OCI-P5x (serous) | 1 | 93 |

Main list, from the first entry:
| gene knocked down | rucaparib or vehicle | cell line | technical replicate | viability, normalised (%) |
| --- | --- | --- | --- | --- |
| NBL1 | Rucaparib | OCI-C5x (clear cell) | 1 | 61.6 (active) |
| NBL1 | Rucaparib | OCI-C5x (clear cell) | 2 | 50.1 (active) |
| NBL1 | Rucaparib | OCI-C5x (clear cell) | 3 | 65.4 (active) |
| NBL1 | Rucaparib | OCI-P5x (serous) | 1 | 93 |
| NBL1 | Rucaparib | OCI-P5x (serous) | 2 | 64.8 (active) |
| NBL1 | Rucaparib | OCI-P5x (serous) | 3 | 85.2 |
| NBL1 | Vehicle | OCI-C5x (clear cell) | 1 | 53.7 (active) |
| NBL1 | Vehicle | OCI-C5x (clear cell) | 2 | 71 (active) |
| NBL1 | Vehicle | OCI-C5x (clear cell) | 3 | 51.8 (active) |
| NBL1 | Vehicle | OCI-P5x (serous) | 1 | 92.5 |
| NBL1 | Vehicle | OCI-P5x (serous) | 2 | 80.5 |
| NBL1 | Vehicle | OCI-P5x (serous) | 3 | 84.2 |
| WRN | Rucaparib | OCI-C5x (clear cell) | 1 | 84.1 |
| WRN | Rucaparib | OCI-C5x (clear cell) | 1 | 56.3 (active) |
| WRN | Rucaparib | OCI-C5x (clear cell) | 2 | 67 (active) |
| WRN | Rucaparib | OCI-C5x (clear cell) | 2 | 95.3 |
| WRN | Rucaparib | OCI-C5x (clear cell) | 3 | 72 (active) |
| WRN | Rucaparib | OCI-C5x (clear cell) | 3 | 56.9 (active) |
| WRN | Rucaparib | OCI-P5x (serous) | 1 | 92.4 |
| WRN | Rucaparib | OCI-P5x (serous) | 1 | 57.3 (active) |
| WRN | Rucaparib | OCI-P5x (serous) | 2 | 73 (active) |
| WRN | Rucaparib | OCI-P5x (serous) | 2 | 81.9 |
| WRN | Rucaparib | OCI-P5x (serous) | 3 | 54.2 (active) |
| WRN | Rucaparib | OCI-P5x (serous) | 3 | 95.4 |
| WRN | Vehicle | OCI-C5x (clear cell) | 1 | 61.8 (active) |
| WRN | Vehicle | OCI-C5x (clear cell) | 1 | 73.2 (active) |
| WRN | Vehicle | OCI-C5x (clear cell) | 2 | 53.6 (active) |
| WRN | Vehicle | OCI-C5x (clear cell) | 2 | 78.7 (active) |
| WRN | Vehicle | OCI-C5x (clear cell) | 3 | 52.1 (active) |
| WRN | Vehicle | OCI-C5x (clear cell) | 3 | 85.8 |
| WRN | Vehicle | OCI-P5x (serous) | 1 | 58.8 (active) |
| WRN | Vehicle | OCI-P5x (serous) | 1 | 65.3 (active) |
| WRN | Vehicle | OCI-P5x (serous) | 2 | 59 (active) |
| WRN | Vehicle | OCI-P5x (serous) | 2 | 93.5 |
| WRN | Vehicle | OCI-P5x (serous) | 3 | 76.2 (active) |
| WRN | Vehicle | OCI-P5x (serous) | 3 | 50.7 (active) |
| TRIB2 | Rucaparib | OCI-C5x (clear cell) | 1 | 58.9 (active) |
| TRIB2 | Rucaparib | OCI-C5x (clear cell) | 2 | 61.5 (active) |
| TRIB2 | Rucaparib | OCI-C5x (clear cell) | 3 | 44.8 (active) |
| TRIB2 | Rucaparib | OCI-P5x (serous) | 1 | 70.9 (active) |
| TRIB2 | Rucaparib | OCI-P5x (serous) | 2 | 81.3 |
| TRIB2 | Rucaparib | OCI-P5x (serous) | 3 | 76.5 (active) |
| TRIB2 | Vehicle | OCI-C5x (clear cell) | 1 | 74.8 (active) |
| TRIB2 | Vehicle | OCI-C5x (clear cell) | 2 | 66.3 (active) |
| TRIB2 | Vehicle | OCI-C5x (clear cell) | 3 | 51.5 (active) |
| TRIB2 | Vehicle | OCI-P5x (serous) | 1 | 76.4 (active) |
| TRIB2 | Vehicle | OCI-P5x (serous) | 2 | 65.7 (active) |
| TRIB2 | Vehicle | OCI-P5x (serous) | 3 | 77.3 (active) |
| DCP2 | Rucaparib | OCI-C5x (clear cell) | 1 | 46.5 (active) |
| DCP2 | Rucaparib | OCI-C5x (clear cell) | 2 | 46.9 (active) |
| DCP2 | Rucaparib | OCI-C5x (clear cell) | 3 | 39.4 (active) |
| DCP2 | Rucaparib | OCI-P5x (serous) | 1 | 67.9 (active) |
| DCP2 | Rucaparib | OCI-P5x (serous) | 2 | 70.7 (active) |
| DCP2 | Rucaparib | OCI-P5x (serous) | 3 | 72.2 (active) |
| DCP2 | Vehicle | OCI-C5x (clear cell) | 1 | 30.8 (active) |
| DCP2 | Vehicle | OCI-C5x (clear cell) | 2 | 47.3 (active) |
| DCP2 | Vehicle | OCI-C5x (clear cell) | 3 | 51.4 (active) |
| DCP2 | Vehicle | OCI-P5x (serous) | 1 | 67.7 (active) |
| DCP2 | Vehicle | OCI-P5x (serous) | 2 | 80.1 |
| DCP2 | Vehicle | OCI-P5x (serous) | 3 | 72.3 (active) |
